In PMC11789017, “Preventing inappropriate signals pre- and post-ligand perception by a toggle switch mechanism of ERECTA” (Proceedings of the National Academy of Sciences of the …, 2025) one finds binding data, which are given here for 2 molecules.

These are yes or no findings as the source states them, for the method shown. For some assays here: Binding seen in cells or lysates may run through a third protein. Some entries that bind do so weakly or less than the wild type. Where a sequence is shown, tags or fusion partners need not be part of it.

The target in experiment [1] is T1, PUB31 (U-box E3 ligase, in vitro assay of SI Appendix Fig. S7A) (UniProt Q9FHN9).
T1 sequence: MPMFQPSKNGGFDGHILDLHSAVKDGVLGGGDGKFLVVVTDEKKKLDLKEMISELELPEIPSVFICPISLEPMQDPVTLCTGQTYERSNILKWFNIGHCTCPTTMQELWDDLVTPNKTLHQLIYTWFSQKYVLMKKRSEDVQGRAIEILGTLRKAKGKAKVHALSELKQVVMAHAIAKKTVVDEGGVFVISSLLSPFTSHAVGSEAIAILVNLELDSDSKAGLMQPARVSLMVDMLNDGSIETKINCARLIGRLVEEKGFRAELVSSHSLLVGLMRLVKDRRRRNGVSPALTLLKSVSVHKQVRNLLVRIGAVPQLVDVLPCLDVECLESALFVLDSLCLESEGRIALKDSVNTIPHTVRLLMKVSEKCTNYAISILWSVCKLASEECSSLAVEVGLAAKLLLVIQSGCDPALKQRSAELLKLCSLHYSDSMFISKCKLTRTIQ
Briefly: BLI; PUB31 with ER_CD and its C-terminal deletion version (SI Appendix, Fig. S7A); details not shown.

The target of experiment [2] is T2, PUB31-MYC (Arabidopsis protoplasts) (UniProt Q9FHN9).
T2 sequence: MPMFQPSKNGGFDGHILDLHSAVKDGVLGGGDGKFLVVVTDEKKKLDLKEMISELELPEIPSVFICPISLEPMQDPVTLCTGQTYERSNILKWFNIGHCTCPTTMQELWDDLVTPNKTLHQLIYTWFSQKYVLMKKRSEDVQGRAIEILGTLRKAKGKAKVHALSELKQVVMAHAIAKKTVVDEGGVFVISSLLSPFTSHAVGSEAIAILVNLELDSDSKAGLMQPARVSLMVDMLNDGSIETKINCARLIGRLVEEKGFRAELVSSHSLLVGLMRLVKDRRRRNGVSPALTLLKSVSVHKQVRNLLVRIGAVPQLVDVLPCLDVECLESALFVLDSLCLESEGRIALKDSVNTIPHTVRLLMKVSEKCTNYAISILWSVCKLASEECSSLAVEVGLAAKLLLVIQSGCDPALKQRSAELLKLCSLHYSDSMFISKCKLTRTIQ
Briefly: co-IP; Arabidopsis protoplasts coexpressing HA-tagged ER variants and PUB31-MYC (SI Appendix, Fig. S7B).

B1: MBP-fused full-length ER cytoplasmic domain (MBP-ER_CD) (domain or fragment, Arabidopsis, UniProt Q42371 602-976, looked up)
chain: CRPHNPPPFLDGSLDKPVTYSTPKLVILHMNMALHVYEDIMRMTENLSEKYIIGHGASSTVYKCVLKNCKPVAIKRLYSHNPQSMKQFETELEMLSSIKHRNLVSLQAYSLSHLGSLLFYDYLENGSLWDLLHGPTKKKTLDWDTRLKIAYGAAQGLAYLHHDCSPRIIHRDVKSSNILLDKDLEARLTDFGIAKSLCVSKSHTSTYVMGTIGYIDPEYARTSRLTEKSDVYSYGIVLLELLTRRKAVDDESNLHHLIMSKTGNNEVMEMADPDITSTCKDLGVVKKVFQLALLCTKRQPNDRPTMHQVTRVLGSFMLSEQPPAATDTSATLAGSCYVDEYANLKTPHSVNCSSMSASDAQLFLRFGQVISQNSE
notes: ERECTA (ER) receptor kinase, Arabidopsis, cytoplasmic domain (juxtamembrane domain, kinase domain and C-terminal tail); source: recombinant, expressed and purified; not shown: MBP, N-terminal, kept
Regarding B1, the binding entry in experiment [1] is “binds”.

B2: ER-HA (Arabidopsis protoplasts) (receptor, UniProt Q42371 25-976)
chain: EEGATLLEIKKSFKDVNNVLYDWTTSPSSDYCVWRGVSCENVTFNVVALNLSDLNLDGEISPAIGDLKSLLSIDLRGNRLSGQIPDEIGDCSSLQNLDLSFNELSGDIPFSISKLKQLEQLILKNNQLIGPIPSTLSQIPNLKILDLAQNKLSGEIPRLIYWNEVLQYLGLRGNNLVGNISPDLCQLTGLWYFDVRNNSLTGSIPETIGNCTAFQVLDLSYNQLTGEIPFDIGFLQVATLSLQGNQLSGKIPSVIGLMQALAVLDLSGNLLSGSIPPILGNLTFTEKLYLHSNKLTGSIPPELGNMSKLHYLELNDNHLTGHIPPELGKLTDLFDLNVANNDLEGPIPDHLSSCTNLNSLNVHGNKFSGTIPRAFQKLESMTYLNLSSNNIKGPIPVELSRIGNLDTLDLSNNKINGIIPSSLGDLEHLLKMNLSRNHITGVVPGDFGNLRSIMEIDLSNNDISGPIPEELNQLQNIILLRLENNNLTGNVGSLANCLSLTVLNVSHNNLVGDIPKNNNFSRFSPDSFIGNPGLCGSWLNSPCHDSRRTVRVSISRAAILGIAIGGLVILLMVLIAACRPHNPPPFLDGSLDKPVTYSTPKLVILHMNMALHVYEDIMRMTENLSEKYIIGHGASSTVYKCVLKNCKPVAIKRLYSHNPQSMKQFETELEMLSSIKHRNLVSLQAYSLSHLGSLLFYDYLENGSLWDLLHGPTKKKTLDWDTRLKIAYGAAQGLAYLHHDCSPRIIHRDVKSSNILLDKDLEARLTDFGIAKSLCVSKSHTSTYVMGTIGYIDPEYARTSRLTEKSDVYSYGIVLLELLTRRKAVDDESNLHHLIMSKTGNNEVMEMADPDITSTCKDLGVVKKVFQLALLCTKRQPNDRPTMHQVTRVLGSFMLSEQPPAATDTSATLAGSCYVDEYANLKTPHSVNCSSMSASDAQLFLRFGQVISQNSE
In the case of B2, the binding entry in experiment [2] is listed as “binds”.
